Results reported in patent US20210161868A1, “ANTI-INFLAMMATORY THERAPY IN ARRHYTHMOGENIC CARDIOMYOPATHY (ACM)” (Beth Israel Deaconess Medical Center, Inc., priority 2018, published 2021).
At least one compound was matched to its structure with a doubt left.

Test system: neonatal rat ventricular myocytes (NRVMs) expressing JUP^2157del2
Test: ACM features (protein distribution, immunofluorescence) in NRVMs expressing mutant plakoglobin
Format: cell-based
Description: All animal studies were in full compliance with policies of Beth Israel Deaconess Medical Center, Johns Hopkins School of Medicine and St. George's University of London. They also conformed to the Guide for the Care and Use of Laboratory Animals from the National Institutes of Health (NIH publication no. 85-23, revised 1996). In vitro studies involved transfection of cultured neonatal rat ventricular myocytes with a mutant allele of the desmosomal protein plakoglobin (2157de12) as previously described.^15 In vivo studies were performed in mice with homozygous knock-in of a mutant form of Dsg2, the gene encoding the desmosomal cadherin desmoglein-2 (Dsg2^mut/mut mice) as previously described.^6 This mutation entails loss of exons 4 and 5 which causes a frameshift and premature termination of translation.
Primary cultures were prepared from disaggregated ventricles of 1-day-old Wistar rat pups (Charles River) as previously described.^15 Cell suspensions were pre-plated to reduce fibroblast content, placed in collagen-coated chamber slides at a density of 2.4×10^5 cells/cm^2, and grown for 4 days at 37° C. in M199 medium (GIBCO) (supplemented with penicillin, 20 U/mL; streptomycin, 20 μg/mL; 10% neonatal calf serum and 0.1 mM bromodeoxyuridine) in a humidified atmosphere containing 1% CO2. Epinephrine (0.01 μmol/mL) was added during the first 24 hours of culture. […]

## CO[C@H]1C[C@@H]2CC[C@@H](C)[C@@](O)(O2)C(=O)C(=O)N2CCCC[C@H]2C(=O)O[C@H]([C@H](C)C[C@@H]2CC[C@@H](O)[C@H](OC)C2)CC(=O)[C@H](C)/C=C(\C)[C@@H](O)[C@@H](OC)C(=O)[C@H](C)C[C@H](C)/C=C/C=C/C=C/1C [rapamycin]
  in vitro readouts of the ACM phenotype (plakoglobin, Cx43, apoptosis, cytokines): also blocked
